Experimental data: PubChem BioAssay AID1259405 (NCATS, 2018)
Shown is an unselected part of about 50,000 reagents tested. Over the whole deposit, about 4,000 (8%) were called active. 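Mouse siRNA library applied to hamster cells; one well for each siRNA.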 Entries without a mark were called inactive. Reagents against one gene are numbered here.

- Purpose: 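Mouse-designed siRNAs used to find CHO productivity engineering targets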 (primary screen)
- System: Chinese hamster CHO-K1 ovary cells with stable secreted eGFP expression
- Reagent: single siRNA against mouse genes, 0.8 pmol siRNA per well (2 µl of 400 nM stock)
- Time to read-out: 3 days
- Detection: 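Percent of the per-plate non-targeting control median for intracellular GFP per well by laser scanning cytometry and for cell viability by ATP luminescence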
- Reading the numbers: GFP, % of control: higher = more GFP per well, higher productivity; viability (ATP), % of control: higher = more viable cells (more ATP)
- Rule for the call: 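Called active when intracellular GFP, relative to negative control, is at or above 120%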

Myl6 #1
- GFP, % of control: 84.9
- viability (ATP), % of control: 59.8

Myl6 #2
- GFP, % of control: 73.7
- viability (ATP), % of control: 79.5

Pmp22 #1
- GFP, % of control: 96.8
- viability (ATP), % of control: 63.6

Pmp22 #2
- GFP, % of control: 41.8
- viability (ATP), % of control: 65.4

Pmp22 #3
- GFP, % of control: 54.4
- viability (ATP), % of control: 80.4

Nprl3 #1
- GFP, % of control: 62.9
- viability (ATP), % of control: 49

Nprl3 #2
- GFP, % of control: 125 (active)
- viability (ATP), % of control: 81.2

Nprl3 #3
- GFP, % of control: 103
- viability (ATP), % of control: 54

Rsl1d1 #1
- GFP, % of control: 133 (active)
- viability (ATP), % of control: 68.5

Rsl1d1 #2
- GFP, % of control: 97.5
- viability (ATP), % of control: 63.7

Rsl1d1 #3
- GFP, % of control: 56.7
- viability (ATP), % of control: 68.2

Or4x11 #1
- GFP, % of control: 131 (active)
- viability (ATP), % of control: 45.9

Or4x11 #2
- GFP, % of control: 49.9
- viability (ATP), % of control: 70.5

Or4x11 #3
- GFP, % of control: 53.2
- viability (ATP), % of control: 102

Rhbdf2 #1
- GFP, % of control: 81.2
- viability (ATP), % of control: 28.9

Rhbdf2 #2
- GFP, % of control: 45.1
- viability (ATP), % of control: 31.9

Rhbdf2 #3
- GFP, % of control: 74.7
- viability (ATP), % of control: 64.9

Tmem237 #1
- GFP, % of control: 90.4
- viability (ATP), % of control: 56.5

Tmem237 #2
- GFP, % of control: 59.4
- viability (ATP), % of control: 63.2

Tmem237 #3
- GFP, % of control: 121 (active)
- viability (ATP), % of control: 102

Or4p20 #1
- GFP, % of control: 162 (active)
- viability (ATP), % of control: 72.9

Or4p20 #2
- GFP, % of control: 83.6
- viability (ATP), % of control: 85.7

Or4p20 #3
- GFP, % of control: 63.9
- viability (ATP), % of control: 89.9

Cercam #1
- GFP, % of control: 63.7
- viability (ATP), % of control: 88.3

Cercam #2
- GFP, % of control: 68.6
- viability (ATP), % of control: 63.7

Cercam #3
- GFP, % of control: 72.5
- viability (ATP), % of control: 76.1

Cux1 #1
- GFP, % of control: 40.5
- viability (ATP), % of control: 87.6

Cux1 #2
- GFP, % of control: 75.9
- viability (ATP), % of control: 47.1

Cux1 #3
- GFP, % of control: 112
- viability (ATP), % of control: 109

Sorted by “viability (ATP), % of control” (descending): 3 of the entries above
Cercam #1
- GFP, % of control: 63.7
- viability (ATP), % of control: 88.3

Cercam #3
- GFP, % of control: 72.5
- viability (ATP), % of control: 76.1

Cercam #2
- GFP, % of control: 68.6
- viability (ATP), % of control: 63.7
